The list does not hold the whole screen: it is rich in T/C values a quarter to a half above the control, in often repeated tests (any T/C) and in doses without a T/C. Further doses and runs are listed elsewhere. T/C is the treated group as % of the vehicle group. Some entries give survivors of the animals treated and no T/C: the source holds a T/C of zero for them, seemingly a mark for toxic or unscored doses. Some doses without a T/C left all or most animals alive at the check, yet need not have been tolerated: the source hardly ever lists a survival T/C far under the control, and the zero likely stands for such cases as well. Survivors were counted at the toxicity check, usually on the fifth day, unless a day is given; later deaths do not show. Schedule codes are those of the source, read here as Q, the interval in days (D) or hours (H), X, the number of doses. Some entries hold several experiments; the values are given in rising order. Some structures stand for samples that the source files as different forms (salt, stereo form or complex); doses refer to the form tested. For survival time, this PubChem deposit counts one and a half times the control or more as active, and values a quarter to a half above the control carry no call in these data; other NCI protocols may use other cut-offs. Some T/C values carry the count of animals alive at the toxicity check (mostly the fifth day); without a count, all were alive then. Marks such as (2×) say how often a value occurs here. Some schedules carry Z or #; the key to these is not given.
Tested on: L1210 leukemia ip in BDF1 mice, survival T/C
Test: NCI In Vivo Anticancer Drug Screen. Data for tumor model L1210 Leukemia (intraperitoneal) in B6D2F1 (BDF1) mice
Details: T/C endpoint: mean survival time, higher T/C = longer survival
[1] = dose: 50.0 mg/kg/injection, schedule: Q01DX005 (ip), vehicle: saline
[2] = dose: 100.0 mg/kg/injection, schedule: Q01DX005 (ip), vehicle: saline
[3] = dose: 200.0 mg/kg/injection, schedule: Q01DX005 (ip), vehicle: saline
[4] = dose: 400.0 mg/kg/injection, schedule: Q01DX001 (ip), vehicle: saline
[5] = dose: 400.0 mg/kg/injection, schedule: Q01DX005 (ip), vehicle: saline
[6] = dose: 200.0 mg/kg/injection, schedule: Q01DX009 (ip), vehicle: saline
[7] = dose: 200.0 mg/kg/injection, schedule: Q01DX001 (ip), vehicle: saline
[8] = dose: 100.0 mg/kg/injection, schedule: Q01DX001 (ip), vehicle: saline

In the case of `Nc1nc(=O)n(C2OC(CO)C(O)C2O)cc1F` (stereo unspecified), the T/C (dose: 0.19 mg/kg/injection, schedule: Q#A X020 (ip), vehicle: saline) was 131 and 140 % of control, the T/C (dose: 0.38 mg/kg/injection, schedule: Q01DX010 (ip), vehicle: saline) was 132 % of control and the T/C (dose: 0.75 mg/kg/injection, schedule: Q01DX010 (ip), vehicle: saline) was 149 % of control. For the same compound, the T/C (dose: 0.75 mg/kg/injection, schedule: Q01DX010 (sc), vehicle: saline) was 129 % of control, the T/C (dose: 1.25 mg/kg/injection, schedule: Q03DX004 (ip), vehicle: saline) was 130 % of control and the T/C (dose: 1.5 mg/kg/injection, schedule: Q01DX010 (im), vehicle: saline) was 142 % of control. For the same compound, the T/C (dose: 1.5 mg/kg/injection, schedule: Q01DX010 (sc), vehicle: saline) was 137 % of control, the T/C (dose: 3.0 mg/kg/injection, schedule: Q01DX010 (ip), vehicle: saline) was 149 % of control [5 of 6 alive] and the T/C (dose: 5.0 mg/kg/injection, schedule: Q07DX002 (ip), vehicle: saline) was 130 % of control. For the same compound, the T/C (dose: 6.0 mg/kg/injection, schedule: Q01DX006 (iv), vehicle: saline) was 143 % of control, the T/C (dose: 8.0 mg/kg/injection, schedule: Q01DX009 (oral), vehicle: saline) was 131 % of control and the T/C (dose: 10.0 mg/kg/injection, schedule: Q07DX002 (ip), vehicle: saline) was 127 % of control. The T/C (dose: 12.0 mg/kg/injection, schedule: Q#A X020 (ip), vehicle: saline) was 149 % of control, the T/C (dose: 12.5 mg/kg/injection, schedule: Q01DX010 (oral), vehicle: saline) was 144 % of control and the T/C (dose: 16.0 mg/kg/injection, schedule: Q01DX009 (oral), vehicle: saline) was 135 % of control. For the same compound, the T/C (dose: 20.0 mg/kg/injection, schedule: Q01DX001 (ip), vehicle: saline) was 126 and 131 % of control, the T/C (dose: 20.0 mg/kg/injection, schedule: Q01DX005 (ip), vehicle: saline) was 143 and 146 % of control and the T/C (dose: 20.0 mg/kg/injection, schedule: Q07DX002 (ip), vehicle: saline) was 136 % of control. The T/C (dose: 20.0 mg/kg/injection, schedule: Q07DX Z (ip), vehicle: saline) was 137 % of control, the T/C (dose: 32.0 mg/kg/injection, schedule: Q01DX009 (oral), vehicle: saline) was 144 % of control and the T/C (dose: 40.0 mg/kg/injection, schedule: Q01DX001 (ip), vehicle: saline) was 132 % of control. For the same compound, the T/C (dose: 40.0 mg/kg/injection, schedule: Q01DX005 (ip), vehicle: saline) was 144 % of control, the T/C (dose: 40.0 mg/kg/injection, schedule: Q07DX Z (ip), vehicle: saline) was 137 % of control and the T/C [1] was 134 (2×), 156, 159, 160, 162 (2×), 164, 168, 169, 170, 179, 185 (2×), 193, 211 % of control [5 of 6 alive]. For the same compound, the T/C (dose: 80.0 mg/kg/injection, schedule: Q01DX001 (ip), vehicle: saline) was 125 and 140 % of control, the T/C (dose: 80.0 mg/kg/injection, schedule: Q07DX Z (ip), vehicle: saline) was 132 % of control and the T/C (dose: 96.0 mg/kg/injection, schedule: Q01DX010 (sc), vehicle: saline) was 146 % of control. For the same compound, the T/C [2] was 100, 102 [6 of 7 alive], 154, 155, 156, 162, 168, 175 (2×), 175 [6 of 7 alive], 176, 179 (2×), 187, 194, 195, 212, 217 % of control, the survivor count [2] was 6 of 6 and the T/C (dose: 160.0 mg/kg/injection, schedule: Q01DX001 (ip), vehicle: saline) was 127, 129, 134, 142 % of control. For the same compound, the T/C (dose: 160.0 mg/kg/injection, schedule: Q01DX005 (ip), vehicle: saline) was 143 % of control, the T/C [3] was 91, 117, 122, 146, 174, 175, 179 (2×), 186 (2×), 194, 220, 236, 272 % of control and the survivor count [3] was 6 of 7 and 6 of 6. The T/C (dose: 320.0 mg/kg/injection, schedule: Q01DX001 (ip), vehicle: saline) was 132 and 138 % of control, the T/C [4] was 127 % of control and the T/C [5] was 102, 143, 162, 168, 169 % of control. For the same compound, the survivor count [5] was 3 of 7, 3 of 6, 4 of 7, 6 of 7, 6 of 6, the T/C (dose: 512.0 mg/kg/injection, schedule: Q01DX001 (oral), vehicle: saline) was 125 % of control and the T/C (dose: 640.0 mg/kg/injection, schedule: Q01DX001 (ip), vehicle: saline) was 142 and 149 % of control. The T/C (dose: 1024.0 mg/kg/injection, schedule: Q01DX001 (oral), vehicle: saline) was 134 % of control.
In the case of `CN(C)N=Nc1n[nH]nc1C(N)=O`, the T/C [6] was 147 % of control, the T/C (dose: 250.0 mg/kg/injection, schedule: Q01DX Z (ip), vehicle: carboxymethylcellulose (CMC)) was 142 % of control and the T/C (dose: 269.0 mg/kg/injection, schedule: Q01DX009 (ip), vehicle: saline) was 132 % of control. For the same compound, the T/C (dose: 538.0 mg/kg/injection, schedule: Q01DX009 (ip), vehicle: saline) was 147 % of control.
With `CC(=O)C(C(C)=O)C1C=CC=CC=C1` the survivor count (dose: 400.0 mg/kg/injection, schedule: Q04DX003 (ip), vehicle: saline) was 3 of 6.
`O=C(Nc1cccc2ccccc12)C(F)(F)F` was tested, and the survivor count [7] was 1 of 4 and the survivor count [4] was 0 of 4.
In the case of `CCCCSP(Cc1ccccc1)SCCCC`, the survivor count (dose: 400.0 mg/kg/injection, schedule: Q04DX003 (ip), vehicle: Klucel (hydroxypropylcellulose) (HPC)) was 2 of 6.
For `Cc1cc(C)c([I+]c2c(C)cc(C)cc2C)c(C)c1`, the survivor count (dose: 1.0 mg/kg/injection, schedule: Q04DX003 (ip), vehicle: acetone) was 3 of 6, the survivor count (dose: 2.0 mg/kg/injection, schedule: Q04DX003 (ip), vehicle: acetone) was 1 of 6 and the survivor count (dose: 4.0 mg/kg/injection, schedule: Q01DX001 (ip), vehicle: acetone) was 3 of 6. The survivor count (dose: 8.0 mg/kg/injection, schedule: Q01DX001 (ip), vehicle: acetone) was 2 of 6 and the survivor count (dose: 16.0 mg/kg/injection, schedule: Q01DX001 (ip), vehicle: acetone) was 0 of 6.
With `O=[N+]([O-])c1ccc(C[Se]c2ncnc3c2ccn3C2OC(CO)C(O)C2O)cc1` (stereo unspecified) the survivor count [1] was 0 of 6.
`Cc1cc(C)c(CCl)c(C)c1CCl` was tested, and the survivor count [7] was 2 of 4 and the survivor count [4] was 0 of 4.
`c1ccc2c(c1)cc[n+]1c3ccccc3ccc21` was tested, and the survivor count (dose: 50.0 mg/kg/injection, schedule: Q01DX001 (ip), vehicle: saline) was 0 of 6, the survivor count [8] was 0 of 6 and the survivor count [7] was 0 of 6. The survivor count [4] was 0 of 6.
With `COc1ccc([I+]c2ccccc2)cc1` the survivor count (dose: 18.0 mg/kg/injection, schedule: Q01DX009 (ip), vehicle: saline) was 2 of 6, the survivor count (dose: 36.0 mg/kg/injection, schedule: Q01DX009 (ip), vehicle: saline) was 0 of 6 and the survivor count (dose: 56.0 mg/kg/injection, schedule: Q04DX003 (ip), vehicle: saline) was 0 of 6. For the same compound, the survivor count (dose: 84.0 mg/kg/injection, schedule: Q04DX003 (ip), vehicle: saline) was 0 of 6, the survivor count [8] was 0 of 6 and the survivor count (dose: 100.0 mg/kg/injection, schedule: Q04DX003 (ip), vehicle: saline with Tween-80) was 1 of 6. For the same compound, the survivor count [7] was 0 of 6, the survivor count (dose: 200.0 mg/kg/injection, schedule: Q04DX003 (ip), vehicle: saline with Tween-80) was 1 of 6 and the survivor count [4] was 0 of 6. The survivor count (dose: 400.0 mg/kg/injection, schedule: Q04DX003 (ip), vehicle: saline with Tween-80) was 0 of 6.
For `CN(C)c1ccc(/C(=N\O)c2cc[n+](C)cc2)cc1`, the survivor count (dose: 12.5 mg/kg/injection, schedule: Q01DX009 (ip), vehicle: saline) was 6 of 6, the survivor count (dose: 25.0 mg/kg/injection, schedule: Q01DX009 (ip), vehicle: saline) was 0 of 6 and the survivor count (dose: 50.0 mg/kg/injection, schedule: Q01DX009 (ip), vehicle: saline) was 0 of 6. The survivor count (dose: 100.0 mg/kg/injection, schedule: Q01DX009 (ip), vehicle: saline) was 0 of 6, the survivor count [6] was 0 of 6 and the survivor count (dose: 400.0 mg/kg/injection, schedule: Q01DX009 (ip), vehicle: saline) was 0 of 6.

Source: PubChem BioAssay AID248 (DTP/NCI, 2004)
